Earlier results, collected in patent publication US8486939B2, “Pyrimidinyl and 1,3,5-triazinyl benzimidazoles and their use in cancer therapy” (Pathway Therapeutics Inc., priority 2009, dated 2013).
For at least one compound, name, drawing or mass did not settle the structure.

Test system: human tumor xenografts
Settings: cited from earlier work
[1] = mice with human tumor xenografts

## O=c1cc(N2CCOCC2)oc2c(-c3ccccc3)cccc12 [LY294002]
Cell lines over-expressing mutant forms of p110α
  activity in cell lines over-expressing mutant p110α vs parental control cells: more active in cell lines over-expressing mutant forms of p110α than parental control cells
[1]
  signaling through the PI3K pathway: reduces signaling through the PI3K pathway
  tumor volume: causes reduction of tumor volume
